# The supplement of paper PMC4604168 (melanoma cell lines)
# The other results are listed elsewhere or left out. Repeats are few or missing, and single values can be far off.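 Imaging used 1,536-well plates; nuclei positive for cleaved PARP by antibody were divided by total DNA-stained nuclei to yield the apoptosis fraction. Doses for screening kept most cells viable, and cell lines differ markedly in resting and induced cleaved-PARP levels.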
# Test system: WM1716
# Assay: cleaved PARP positive nuclei fraction relative to DMSO control; melanoma cells; higher = more apoptosis
# Settings: library dose: low library concentration; 72 h
row,SMILES,cleaved PARP positive nuclei fraction
1,"NC(=O)c1ccc(N(C(N)=O)c2c(F)cccc2F)nc1-c1ccc(F)cc1F + Nc1nc(F)nc2c1ncn2[C@@H]1O[C@H](CO)[C@@H](O)[C@@H]1O [fludarabine] (first compound 0.4 µM, partner dose 0.2 µM)",128%
2,"Cn1sc(=O)n(Cc2ccccc2)c1=O + CNC(=O)c1cc(Oc2ccc(NC(=O)Nc3ccc(Cl)c(C(F)(F)F)c3)cc2)ccn1 [sorafenib] (first compound 0.4 µM, partner dose 0.4 µM)",38.5%
3,"COc1ccc(C2=N[C@@H](c3ccc(Cl)cc3)[C@@H](c3ccc(Cl)cc3)N2C(=O)N2CCNC(=O)C2)c(OC(C)C)c1 [Nutlin-3] + CN(c1ncccc1CNc1nc(Nc2ccc3c(c2)CC(=O)N3)ncc1C(F)(F)F)S(C)(=O)=O [PF562271] (first compound 0.1 µM, partner dose 0.08 µM)",154%
4,"CN(c1ncccc1CNc1nc(Nc2ccc3c(c2)CC(=O)N3)ncc1C(F)(F)F)S(C)(=O)=O + Cn1c(=O)n(-c2ccc(C(C)(C)C#N)cc2)c2c3cc(-c4cnc5ccccc5c4)ccc3ncc21 [NVP-BEZ235] (first compound 0.08 µM, partner dose 0.004 µM)",260%
5,"Cn1sc(=O)n(Cc2ccccc2)c1=O + CCN(CC)CCNC(=O)c1c(C)[nH]c(/C=C2\C(=O)Nc3ccc(F)cc32)c1C [sunitinib] (first compound 0.4 µM, partner dose 0.4 µM)",28.5%
6,"CC1(C)CCC(c2ccc(Cl)cc2)=C(CN2CCN(c3ccc(C(=O)NS(=O)(=O)c4ccc(N[C@H](CCN5CCOCC5)CSc5ccccc5)c(S(=O)(=O)C(F)(F)F)c4)cc3)CC2)C1 + Cc1nc(Nc2ncc(C(=O)Nc3c(C)cccc3Cl)s2)cc(N2CCN(CCO)CC2)n1 [dasatanib] (first compound 0.4 µM, partner dose 0.004 µM)",69.8%
7,"Cn1cnc2c(F)c(Nc3ccc(Br)cc3Cl)c(C(=O)NOCCO)cc21 [selumetinib] + Cn1c(Nc2ccc(C(F)(F)F)cc2)nc2cc(Oc3ccnc(-c4ncc(C(F)(F)F)[nH]4)c3)ccc21 [CHIR265] (first compound 0.015 µM, partner dose 0.08 µM)",85.6%
8,"C[C@@H](N)c1ccc(C(=O)Nc2ccnc3[nH]ccc23)cc1 + Nc1ncn([C@H]2C[C@H](O)[C@@H](CO)O2)c(=O)n1 [decitabine] (first compound 0.4 µM, partner dose 0.1 µM)",128%
9,"CC1(C)CCC(c2ccc(Cl)cc2)=C(CN2CCN(c3ccc(C(=O)NS(=O)(=O)c4ccc(N[C@H](CCN5CCOCC5)CSc5ccccc5)c(S(=O)(=O)C(F)(F)F)c4)cc3)CC2)C1 + COCC[n+]1c2c(n(Cc3cnccn3)c1C)C(=O)c1ccccc1C2=O [YM155] (first compound 0.4 µM, partner dose 0.0004 µM)",104%
10,"Cn1sc(=O)n(Cc2ccccc2)c1=O + CS(=O)(=O)CCNCc1ccc(-c2ccc3ncnc(Nc4ccc(OCc5cccc(F)c5)c(Cl)c4)c3c2)o1 [lapatinib] (first compound 0.4 µM, partner dose 0.8 µM)",35.1%
11,"Cn1cnc2c(F)c(Nc3ccc(Br)cc3Cl)c(C(=O)NOCCO)cc21 [selumetinib] + Nc1nc(F)nc2c1ncn2[C@@H]1O[C@H](CO)[C@@H](O)[C@@H]1O [fludarabine] (first compound 0.015 µM, partner dose 0.2 µM)",64.7%
12,"CS(=O)(=O)c1ccc(C(=O)Nc2ccc(Cl)c(-c3ccccn3)c2)c(Cl)c1 [vismodegib] + CC(C)C[C@H](NC(=O)[C@H](Cc1ccccc1)NC(=O)c1cnccn1)B(O)O [Bortezomib] (first compound 1 µM, partner dose 0.001 µM)",59.2%
13,"CC1(C)CCC(c2ccc(Cl)cc2)=C(CN2CCN(c3ccc(C(=O)NS(=O)(=O)c4ccc(N[C@H](CCN5CCOCC5)CSc5ccccc5)c(S(=O)(=O)C(F)(F)F)c4)cc3)CC2)C1 + C=C(c1ccc(C(=O)O)cc1)c1cc2c(cc1C)C(C)(C)CCC2(C)C [Bexarotene] (first compound 0.4 µM, partner dose 2 µM)",111%
14,"CS(=O)(=O)c1ccc(C(=O)Nc2ccc(Cl)c(-c3ccccn3)c2)c(Cl)c1 [vismodegib] + CC(=O)c1c(C)c2cnc(Nc3ccc(N4CCNCC4)cn3)nc2n(C2CCCC2)c1=O [palbociclib] (first compound 1 µM, partner dose 0.04 µM)",79.5%
15,"NC(=O)c1ccc(N(C(N)=O)c2c(F)cccc2F)nc1-c1ccc(F)cc1F + C#Cc1cccc(Nc2ncnc3cc(OCCOC)c(OCCOC)cc23)c1 [erlotinib] (first compound 0.4 µM, partner dose 0.8 µM)",82.2%
16,"CS(=O)(=O)c1ccc(C(=O)Nc2ccc(Cl)c(-c3ccccn3)c2)c(Cl)c1 [vismodegib] + Nc1nc(F)nc2c1ncn2[C@@H]1O[C@H](CO)[C@@H](O)[C@@H]1O [fludarabine] (first compound 1 µM, partner dose 0.2 µM)",131%
17,"NC(=O)c1ccc(N(C(N)=O)c2c(F)cccc2F)nc1-c1ccc(F)cc1F + C=CCNC1=C2C[C@@H](C)C[C@H](OC)[C@H](O)[C@@H](C)/C=C(\C)[C@H](OC(N)=O)[C@@H](OC)/C=C\C=C(/C)C(=O)NC(=CC1=O)C2=O [Tanespimycin] (first compound 0.4 µM, partner dose 0.002 µM)",78.5%
18,"CC(=O)O[C@@]12CO[C@@H]1C[C@H](O)[C@@]1(C)C(=O)[C@H](O)C3=C(C)[C@@H](OC(=O)[C@H](O)[C@@H](NC(=O)OC(C)(C)C)c4ccccc4)C[C@@](O)([C@@H](OC(=O)c4ccccc4)[C@H]21)C3(C)C [Docetaxel] + C=C(c1ccc(C(=O)O)cc1)c1cc2c(cc1C)C(C)(C)CCC2(C)C [Bexarotene] (first compound 0.0001 µM, partner dose 2 µM)",73.1%
19,"CC(=O)O[C@@]12CO[C@@H]1C[C@H](O)[C@@]1(C)C(=O)[C@H](O)C3=C(C)[C@@H](OC(=O)[C@H](O)[C@@H](NC(=O)OC(C)(C)C)c4ccccc4)C[C@@](O)([C@@H](OC(=O)c4ccccc4)[C@H]21)C3(C)C [Docetaxel] + C[C@]1(c2nc3c(C(N)=O)cccc3[nH]2)CCCN1 [Veliparib] (first compound 0.0001 µM, partner dose 1.4 µM)",289%
20,"CCN(CC)CCNC(=O)c1c(C)[nH]c(/C=C2\C(=O)Nc3ccc(F)cc32)c1C [sunitinib] + OCc1c[nH]c2ccccc12 [Indole-3-carbinol] (first compound 0.4 µM, partner dose 0.8 µM)",58.8%
21,"C[C@]1(O)C[C@@H](c2nc(-c3ccc4ccc(-c5ccccc5)nc4c3)c3c(N)nccn32)C1 + CCCS(=O)(=O)Nc1ccc(F)c(C(=O)c2c[nH]c3ncc(Cl)cc23)c1F [PLX4720] (first compound 0.4 µM, partner dose 0.08 µM)",59.2%
22,"Cn1cnc2c(F)c(Nc3ccc(Br)cc3Cl)c(C(=O)NOCCO)cc21 [selumetinib] + C#Cc1cccc(Nc2ncnc3cc(OCCOC)c(OCCOC)cc23)c1 [erlotinib] (first compound 0.015 µM, partner dose 0.8 µM)",405%
23,"Cn1sc(=O)n(Cc2ccccc2)c1=O + OCc1c[nH]c2ccccc12 [Indole-3-carbinol] (first compound 0.4 µM, partner dose 0.8 µM)",121%
24,"Cn1cnc2c(F)c(Nc3ccc(Br)cc3Cl)c(C(=O)NOCCO)cc21 [selumetinib] + C[C@@H](Oc1cc(-c2cnn(C3CCNCC3)c2)cnc1N)c1c(Cl)ccc(F)c1Cl [Crizotinib] (first compound 0.015 µM, partner dose 0.2 µM)",785%
25,"NC(=O)c1ccc(N(C(N)=O)c2c(F)cccc2F)nc1-c1ccc(F)cc1F + Clc1ccc(Nc2nnc(Cc3ccncc3)c3ccccc23)cc1 [vatalanib] (first compound 0.4 µM, partner dose 2 µM)",31.5%
26,"Cn1sc(=O)n(Cc2ccccc2)c1=O + Clc1ccc(Nc2nnc(Cc3ccncc3)c3ccccc23)cc1 [vatalanib] (first compound 0.4 µM, partner dose 2 µM)",40.6%
27,"COc1ccc(C2=N[C@@H](c3ccc(Cl)cc3)[C@@H](c3ccc(Cl)cc3)N2C(=O)N2CCNC(=O)C2)c(OC(C)C)c1 [Nutlin-3] + CC(=O)c1c(C)c2cnc(Nc3ccc(N4CCNCC4)cn3)nc2n(C2CCCC2)c1=O [palbociclib] (first compound 0.1 µM, partner dose 0.04 µM)",122%
28,"COc1ccc(C2=N[C@@H](c3ccc(Cl)cc3)[C@@H](c3ccc(Cl)cc3)N2C(=O)N2CCNC(=O)C2)c(OC(C)C)c1 [Nutlin-3] + Cn1c(=O)n(-c2ccc(C(C)(C)C#N)cc2)c2c3cc(-c4cnc5ccccc5c4)ccc3ncc21 [NVP-BEZ235] (first compound 0.1 µM, partner dose 0.004 µM)",250%
29,"NC(=O)c1ccc(N(C(N)=O)c2c(F)cccc2F)nc1-c1ccc(F)cc1F + C=C(c1ccc(C(=O)O)cc1)c1cc2c(cc1C)C(C)(C)CCC2(C)C [Bexarotene] (first compound 0.4 µM, partner dose 2 µM)",70.1%

# In a second layout: results already given.
row	SMILES	cleaved PARP positive nuclei fraction
18	CC(=O)O[C@@]12CO[C@@H]1C[C@H](O)[C@@]1(C)C(=O)[C@H](O)C3=C(C)[C@@H](OC(=O)[C@H](O)[C@@H](NC(=O)OC(C)(C)C)c4ccccc4)C[C@@](O)([C@@H](OC(=O)c4ccccc4)[C@H]21)C3(C)C [Docetaxel] + C=C(c1ccc(C(=O)O)cc1)c1cc2c(cc1C)C(C)(C)CCC2(C)C [Bexarotene] (first compound 0.0001 µM, partner dose 2 µM)	73.1%
20	CCN(CC)CCNC(=O)c1c(C)[nH]c(/C=C2\C(=O)Nc3ccc(F)cc32)c1C [sunitinib] + OCc1c[nH]c2ccccc12 [Indole-3-carbinol] (first compound 0.4 µM, partner dose 0.8 µM)	58.8%
